Laboratory results reported in patent US20100016237 (published 2010).

Assay: general procedure: Fmoc solid-phase peptide synthesis; Fmoc-Rink amide AM resin; HOBt ester (HOAt and DIPEA for Fmoc-Glu(2-phenylisopropyloxy)-OH)
Conditions: whole synthesis, UV214 nm, scale 0.25 mmol

Substance: {2-[2-(16-(tetrazol-5-yl)hexadecanoylamino)ethoxy]ethoxy}acetyl-Gly-Ser-Gln-His-Dap(iPr)-D-Leu-c[Glu-Hyp-D-Phe-Arg-Trp-Lys]-NH2
- final HPLC purity: 99% purity by UV214 nm
